# Article PMC7819943, “Rice protein-binding microarrays: a tool to detect cis-acting elements near promoter regions in rice”
# The chains behind the UniProt entries cited, without tags or fusion partners.
# UniProt Q0JBA9, entry or part of it: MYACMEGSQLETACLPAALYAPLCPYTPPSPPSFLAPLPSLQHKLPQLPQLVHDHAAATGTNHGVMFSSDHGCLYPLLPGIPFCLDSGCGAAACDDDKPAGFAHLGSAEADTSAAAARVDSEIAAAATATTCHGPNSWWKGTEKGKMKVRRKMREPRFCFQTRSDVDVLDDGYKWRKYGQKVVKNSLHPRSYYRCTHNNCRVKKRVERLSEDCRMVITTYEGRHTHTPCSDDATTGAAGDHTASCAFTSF
# Some of the results follow.
# Biological target: OsWRKY34 (Oryza sativa, UniProt Q0JBA9 1-250)
# Experiment: protein-binding microarray (RPBM); PBS, 2% BSA, 51.3 ng/ul salmon testes DNA, 50 uM zinc acetate, 200 nM TF, 25 C, 1 h; high values mean tight binding
# Details: protein: recombinant; tags: N-terminal polyhistidine and DsRed monomer fusion (pET32a); label: CyDye5-dUTP incorporated in the synthesized complementary strand; 3' TTTTT single-stranded linker to array surface; dsDNA, one strand shown
# Procedure, shortened: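 Polyhistidine-tagged DsRed fusions of transcription factors, joined at the N-terminus, were expressed in E. coli BL21-CodonPlus and isolated on Ni–NTA. They were incubated at 200 nM for 1 h at 25 °C on a custom Agilent array, double-stranded and BSA-blocked, in PBS with 2% BSA, salmon testes DNA and 50 µM zinc acetate. The binding signal is per-feature fluorescence intensity (arbitrary units) read on an Axon 4000B scanner after washing.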
row,Sequence,binding signal
1,CATTTGAACCTTGTGGCTTTATTGTGCTCCGACGTTTTAACGGAGTCACCTAGTGCAG,8950 fluorescence intensity (a.u.)
2,ACTTCTACCTTTCGTTTTTCCACGCGCATATGCTTTTTGACGGAGTCACCTAGTGCAG,20300 fluorescence intensity (a.u.)
3,TCTGTTGCTTTGCTTTGCTTCGGTTAGCTTCTTTCACAGCCGGAGTCACCTAGTGCAG,8100 fluorescence intensity (a.u.)
4,TTGTCACTGCATTTACCTTCAGACTTTTTTCCCCTTGAAACGGAGTCACCTAGTGCAG,8920 fluorescence intensity (a.u.)
5,CTCCGTATCTAACCATTCATCCCTTCCTCACTCCGTTTTTCGGAGTCACCTAGTGCAG,8500 fluorescence intensity (a.u.)
6,GGAGTTCGTGGGGACGTTCATCCTCATCTTCTTCGCGACGCGGAGTCACCTAGTGCAG,9260 fluorescence intensity (a.u.)
7,GGCTTGCTTTGCTGTTGCCGTTGTTTTGCTTTGCCTTGCCCGGAGTCACCTAGTGCAG,9230 fluorescence intensity (a.u.)
8,TTACACTTGTTTCGTCTCATCTCTCGTGTCCCCTCACTTCCGGAGTCACCTAGTGCAG,9260 fluorescence intensity (a.u.)
9,GCGACCAAATCCCCATCCCCACCACTCTGCACTTCCGCTACGGAGTCACCTAGTGCAG,8190 fluorescence intensity (a.u.)
10,TCCGTCTCTACTTGCCTGCCATTTTTGTCACATAAACCCTCGGAGTCACCTAGTGCAG,13200 fluorescence intensity (a.u.)
11,TTTAGATTTATTTTTTGTGACATAGGGAGTACTTTTTTTTCGGAGTCACCTAGTGCAG,9200 fluorescence intensity (a.u.)
12,TAGTTGGCGCTTGGGTTTGGGGTTTCGTTTCGTGTCCCAACGGAGTCACCTAGTGCAG,15900 fluorescence intensity (a.u.)
13,AACCGGCAGTAGTACCAATGATGCACCTTTGCACCAGTTTCGGAGTCACCTAGTGCAG,9450 fluorescence intensity (a.u.)
14,CTTTGGTCTGCACTGACACTTTGTTCTTGCTGCATTTCTTCGGAGTCACCTAGTGCAG,9040 fluorescence intensity (a.u.)
15,GATTTGGTTCTCTCCAGTATCTATCTCATGTTCACTTGCCCGGAGTCACCTAGTGCAG,9400 fluorescence intensity (a.u.)
16,GAGTTCGGCCTTTCCGGTTTCCGGTTGTGTTGTGAGGAGTCGGAGTCACCTAGTGCAG,10600 fluorescence intensity (a.u.)
17,TTCCTTTTCTGCGTCACTGGTAGTTACAGTATTTTGGCTACGGAGTCACCTAGTGCAG,10100 fluorescence intensity (a.u.)
18,CGTCTCTCCCGATCCGTCCCATCAAAAAGCAACACCAATACGGAGTCACCTAGTGCAG,8530 fluorescence intensity (a.u.)
19,TTATCTTCTTTTATTATGTTTGATCTTCTTTTGTTCGATACGGAGTCACCTAGTGCAG,9330 fluorescence intensity (a.u.)
20,TCGATGGGTGGGCTTGGGCTGACAAACAATCACACTCTCGCGGAGTCACCTAGTGCAG,8290 fluorescence intensity (a.u.)
21,AATTTTACCCCTCATATCTACTATTCTTCCGTGCAATTTTCGGAGTCACCTAGTGCAG,9530 fluorescence intensity (a.u.)

# 2 entries from above in another layout:
row	Sequence	binding signal
1	CATTTGAACCTTGTGGCTTTATTGTGCTCCGACGTTTTAACGGAGTCACCTAGTGCAG	8950 fluorescence intensity (a.u.)
2	ACTTCTACCTTTCGTTTTTCCACGCGCATATGCTTTTTGACGGAGTCACCTAGTGCAG	20300 fluorescence intensity (a.u.)

# Remaining list, next part

row,Sequence,binding signal
1,TCTCTCATTTCTCTCTCTCATCACACGGACGCAATGCAAACGGAGTCACCTAGTGCAG,9150 fluorescence intensity (a.u.)
2,TCCAAACTCCAAAGCCCTTTGCTCTAGCTATTTCTTTTTGCGGAGTCACCTAGTGCAG,8540 fluorescence intensity (a.u.)
3,AACTCCATCTTCTTCTTTGCTTCGCCCTTGATTTGTGTGCCGGAGTCACCTAGTGCAG,10400 fluorescence intensity (a.u.)
4,GTAATCGCCTCTCACGTCAGTACGCGTCCCAACCTGCTCCCGGAGTCACCTAGTGCAG,8050 fluorescence intensity (a.u.)
5,AACAATCTCACAATCACCCAGGGCCGAACGCAGCCTTATACGGAGTCACCTAGTGCAG,8800 fluorescence intensity (a.u.)
6,CTTTTTCCTATATATTTATAATTTGCAATTTTTTTTACTACGGAGTCACCTAGTGCAG,8810 fluorescence intensity (a.u.)
7,CATCATGTCTCTCCGCTTAACCGCTCCTACGACTCCATCCCGGAGTCACCTAGTGCAG,9700 fluorescence intensity (a.u.)
8,TTTAGTTTAGTTCGTCCATCTTTGTCGATTTGCGCTGAAACGGAGTCACCTAGTGCAG,10800 fluorescence intensity (a.u.)
9,GCATAGTAATTTGATTTTTGTTTGTTATTTTGTTATAATTCGGAGTCACCTAGTGCAG,10700 fluorescence intensity (a.u.)
10,TGCATCGCGTGCTTTTTCGGCCATGCACCTCTCGTCGTCTCGGAGTCACCTAGTGCAG,8480 fluorescence intensity (a.u.)
11,CCTCCGCTCCCTCACCACCCACGCCGCCGCCGCCGCCGCCCGGAGTCACCTAGTGCAG,11100 fluorescence intensity (a.u.)
12,ATTCACTTGGTTCCCAGCTCAATACTCACATCTGCTTCCACGGAGTCACCTAGTGCAG,9040 fluorescence intensity (a.u.)
13,GCTGCCCCGCGGGCGTTGAGTTTCTTCTCTACTTCCTCCGCGGAGTCACCTAGTGCAG,8450 fluorescence intensity (a.u.)
14,ACCTCGCCTACCTCCACTCTCTCGCGCTCGCTCTCCAATGCGGAGTCACCTAGTGCAG,9280 fluorescence intensity (a.u.)
15,TGCCCGGACACCTCTCGGTTTGACCGCCGCCCATTGTCTGCGGAGTCACCTAGTGCAG,9630 fluorescence intensity (a.u.)
16,TACTCGTATGCTGTACTACGTACTCCAGTACACTTTTTTTCGGAGTCACCTAGTGCAG,10700 fluorescence intensity (a.u.)
17,TTGCAAACTTGCTTGTACTTGCGGTTGACTCTCCACTAGGCGGAGTCACCTAGTGCAG,8180 fluorescence intensity (a.u.)
18,ATGTCCCACGCCGCAAGGGATCCCTACAGGGCCCCACCCTCGGAGTCACCTAGTGCAG,8230 fluorescence intensity (a.u.)
19,GATGCTTGCGCTTGCGCTACCGTCTCCGTCTCAATCCCCACGGAGTCACCTAGTGCAG,8180 fluorescence intensity (a.u.)
20,AGCCACTATGACCCTAGTTTCATCCATTTTCTGGTATTCACGGAGTCACCTAGTGCAG,10100 fluorescence intensity (a.u.)
21,TCTGTATGGCCCTTTTTTTTTGTGACAATGCTACATGAATCGGAGTCACCTAGTGCAG,10100 fluorescence intensity (a.u.)
